Results on 38 targets are retold here after the supplement of paper PMC12819154, “High-throughput peptide-centric local stability assay extends protein–ligand identification to membrane proteins, tissues and bacteria” (Nature Structural & Molecular Biology, 2025).

Chains of the proteins cited; added tags and fusions are not shown. Lines headed by an entry give the natural chain unless they say otherwise; changes in a name come on top.
UniProt Q7Z3D6: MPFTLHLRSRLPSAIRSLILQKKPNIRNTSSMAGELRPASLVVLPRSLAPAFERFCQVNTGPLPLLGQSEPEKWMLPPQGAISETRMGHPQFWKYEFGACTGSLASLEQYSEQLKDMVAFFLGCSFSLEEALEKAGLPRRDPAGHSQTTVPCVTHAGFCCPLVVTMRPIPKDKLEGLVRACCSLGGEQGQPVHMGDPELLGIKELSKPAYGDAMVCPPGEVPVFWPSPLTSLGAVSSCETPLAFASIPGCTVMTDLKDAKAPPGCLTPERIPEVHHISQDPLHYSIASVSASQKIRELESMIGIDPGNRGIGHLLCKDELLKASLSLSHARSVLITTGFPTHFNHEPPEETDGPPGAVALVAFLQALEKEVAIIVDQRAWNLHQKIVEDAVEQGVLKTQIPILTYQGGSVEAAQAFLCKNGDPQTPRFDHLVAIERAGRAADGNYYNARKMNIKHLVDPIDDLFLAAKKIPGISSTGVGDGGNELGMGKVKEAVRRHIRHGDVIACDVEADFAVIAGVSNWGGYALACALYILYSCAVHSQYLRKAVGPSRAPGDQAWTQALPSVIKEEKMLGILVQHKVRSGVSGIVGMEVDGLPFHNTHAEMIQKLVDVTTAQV
UniProt Q7Z6J9: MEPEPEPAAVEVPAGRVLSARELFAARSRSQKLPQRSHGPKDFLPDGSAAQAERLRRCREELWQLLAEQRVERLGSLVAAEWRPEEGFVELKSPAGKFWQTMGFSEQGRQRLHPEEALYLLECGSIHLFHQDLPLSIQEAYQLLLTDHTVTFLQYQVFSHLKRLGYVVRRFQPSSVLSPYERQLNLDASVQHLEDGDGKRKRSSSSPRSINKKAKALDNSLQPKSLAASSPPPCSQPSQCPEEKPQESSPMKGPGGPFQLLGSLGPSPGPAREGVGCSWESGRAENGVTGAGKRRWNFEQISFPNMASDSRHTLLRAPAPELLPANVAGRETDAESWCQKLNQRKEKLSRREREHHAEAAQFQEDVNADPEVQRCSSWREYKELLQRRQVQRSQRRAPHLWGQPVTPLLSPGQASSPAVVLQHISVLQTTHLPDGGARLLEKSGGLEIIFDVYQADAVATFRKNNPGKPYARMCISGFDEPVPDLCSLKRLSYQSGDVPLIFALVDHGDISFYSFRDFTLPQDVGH
UniProt Q6W2J9: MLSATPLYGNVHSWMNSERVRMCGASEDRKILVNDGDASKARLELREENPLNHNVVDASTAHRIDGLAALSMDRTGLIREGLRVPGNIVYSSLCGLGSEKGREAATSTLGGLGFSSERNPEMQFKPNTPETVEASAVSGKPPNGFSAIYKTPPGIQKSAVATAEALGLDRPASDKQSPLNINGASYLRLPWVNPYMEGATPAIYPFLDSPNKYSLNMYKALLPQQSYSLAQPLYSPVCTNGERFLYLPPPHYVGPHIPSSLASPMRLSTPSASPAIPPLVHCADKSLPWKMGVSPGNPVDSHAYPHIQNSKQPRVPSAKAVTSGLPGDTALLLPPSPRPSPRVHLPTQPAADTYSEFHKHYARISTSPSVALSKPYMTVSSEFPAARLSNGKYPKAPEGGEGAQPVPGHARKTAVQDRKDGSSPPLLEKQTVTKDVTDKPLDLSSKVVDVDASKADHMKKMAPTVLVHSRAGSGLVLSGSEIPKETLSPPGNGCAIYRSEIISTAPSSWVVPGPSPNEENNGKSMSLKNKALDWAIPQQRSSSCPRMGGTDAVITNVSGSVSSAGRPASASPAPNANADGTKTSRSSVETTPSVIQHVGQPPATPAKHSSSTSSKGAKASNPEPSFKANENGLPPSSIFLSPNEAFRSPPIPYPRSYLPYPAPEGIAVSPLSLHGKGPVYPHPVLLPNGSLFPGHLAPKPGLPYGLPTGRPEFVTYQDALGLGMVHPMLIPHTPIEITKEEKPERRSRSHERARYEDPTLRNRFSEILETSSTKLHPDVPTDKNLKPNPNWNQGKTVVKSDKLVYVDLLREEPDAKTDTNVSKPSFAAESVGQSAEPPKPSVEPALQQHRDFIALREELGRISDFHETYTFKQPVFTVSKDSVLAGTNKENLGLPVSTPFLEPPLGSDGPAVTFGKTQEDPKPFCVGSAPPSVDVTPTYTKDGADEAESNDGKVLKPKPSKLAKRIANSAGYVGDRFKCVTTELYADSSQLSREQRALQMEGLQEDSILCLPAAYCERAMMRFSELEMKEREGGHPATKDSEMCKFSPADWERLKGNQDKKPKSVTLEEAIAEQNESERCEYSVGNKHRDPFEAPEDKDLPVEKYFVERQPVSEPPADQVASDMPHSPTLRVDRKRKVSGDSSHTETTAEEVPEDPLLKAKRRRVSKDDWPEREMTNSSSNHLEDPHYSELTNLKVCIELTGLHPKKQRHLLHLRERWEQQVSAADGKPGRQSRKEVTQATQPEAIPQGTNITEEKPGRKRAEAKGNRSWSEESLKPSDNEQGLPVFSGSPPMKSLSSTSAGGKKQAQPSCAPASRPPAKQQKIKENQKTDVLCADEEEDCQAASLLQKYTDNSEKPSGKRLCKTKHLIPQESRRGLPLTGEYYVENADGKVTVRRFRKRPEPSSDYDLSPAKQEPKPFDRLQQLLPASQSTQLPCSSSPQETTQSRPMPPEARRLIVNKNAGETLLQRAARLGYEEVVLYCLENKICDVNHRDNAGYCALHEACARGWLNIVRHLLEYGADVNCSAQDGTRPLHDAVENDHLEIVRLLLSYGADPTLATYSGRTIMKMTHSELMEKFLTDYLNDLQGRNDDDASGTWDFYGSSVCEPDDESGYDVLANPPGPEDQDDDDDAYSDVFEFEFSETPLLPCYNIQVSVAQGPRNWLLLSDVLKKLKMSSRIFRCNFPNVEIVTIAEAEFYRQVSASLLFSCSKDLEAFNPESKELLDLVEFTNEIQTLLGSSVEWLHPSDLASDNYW
UniProt Q6ZNA4: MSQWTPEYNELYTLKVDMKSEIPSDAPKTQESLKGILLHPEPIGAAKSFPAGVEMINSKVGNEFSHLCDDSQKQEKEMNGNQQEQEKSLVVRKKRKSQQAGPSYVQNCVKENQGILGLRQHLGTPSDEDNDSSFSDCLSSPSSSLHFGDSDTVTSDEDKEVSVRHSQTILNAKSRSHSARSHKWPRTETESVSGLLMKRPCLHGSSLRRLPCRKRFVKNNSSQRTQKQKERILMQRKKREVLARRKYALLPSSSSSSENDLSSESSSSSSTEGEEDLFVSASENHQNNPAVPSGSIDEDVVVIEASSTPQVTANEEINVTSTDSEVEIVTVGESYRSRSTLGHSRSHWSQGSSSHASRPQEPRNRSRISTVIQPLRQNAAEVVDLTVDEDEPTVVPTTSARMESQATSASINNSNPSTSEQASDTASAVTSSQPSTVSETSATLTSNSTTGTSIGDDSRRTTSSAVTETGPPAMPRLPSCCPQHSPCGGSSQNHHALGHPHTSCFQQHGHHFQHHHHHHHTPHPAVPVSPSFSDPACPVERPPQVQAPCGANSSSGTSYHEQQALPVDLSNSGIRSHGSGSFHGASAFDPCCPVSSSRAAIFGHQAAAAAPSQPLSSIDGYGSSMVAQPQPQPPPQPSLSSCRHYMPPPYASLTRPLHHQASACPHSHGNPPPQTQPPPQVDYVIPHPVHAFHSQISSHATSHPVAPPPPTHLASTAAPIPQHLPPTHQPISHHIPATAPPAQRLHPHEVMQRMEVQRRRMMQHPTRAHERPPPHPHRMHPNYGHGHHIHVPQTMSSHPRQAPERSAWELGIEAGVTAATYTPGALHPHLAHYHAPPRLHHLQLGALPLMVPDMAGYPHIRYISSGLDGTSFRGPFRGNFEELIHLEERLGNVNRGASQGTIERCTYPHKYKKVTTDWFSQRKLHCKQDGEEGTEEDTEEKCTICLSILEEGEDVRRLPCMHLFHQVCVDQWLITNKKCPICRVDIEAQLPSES
UniProt Q6ZN57: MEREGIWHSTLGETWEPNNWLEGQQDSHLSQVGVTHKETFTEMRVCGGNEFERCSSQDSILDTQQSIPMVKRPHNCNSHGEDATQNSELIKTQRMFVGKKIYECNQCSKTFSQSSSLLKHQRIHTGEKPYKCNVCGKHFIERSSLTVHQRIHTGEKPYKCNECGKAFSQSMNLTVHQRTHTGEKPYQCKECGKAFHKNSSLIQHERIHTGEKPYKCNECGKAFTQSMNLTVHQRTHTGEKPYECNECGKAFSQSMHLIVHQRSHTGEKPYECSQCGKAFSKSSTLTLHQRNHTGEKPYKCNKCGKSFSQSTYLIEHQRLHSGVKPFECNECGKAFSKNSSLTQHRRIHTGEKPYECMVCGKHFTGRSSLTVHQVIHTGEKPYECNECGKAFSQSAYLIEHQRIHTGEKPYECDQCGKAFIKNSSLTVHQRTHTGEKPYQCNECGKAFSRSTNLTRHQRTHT
UniProt Q7Z4Q2: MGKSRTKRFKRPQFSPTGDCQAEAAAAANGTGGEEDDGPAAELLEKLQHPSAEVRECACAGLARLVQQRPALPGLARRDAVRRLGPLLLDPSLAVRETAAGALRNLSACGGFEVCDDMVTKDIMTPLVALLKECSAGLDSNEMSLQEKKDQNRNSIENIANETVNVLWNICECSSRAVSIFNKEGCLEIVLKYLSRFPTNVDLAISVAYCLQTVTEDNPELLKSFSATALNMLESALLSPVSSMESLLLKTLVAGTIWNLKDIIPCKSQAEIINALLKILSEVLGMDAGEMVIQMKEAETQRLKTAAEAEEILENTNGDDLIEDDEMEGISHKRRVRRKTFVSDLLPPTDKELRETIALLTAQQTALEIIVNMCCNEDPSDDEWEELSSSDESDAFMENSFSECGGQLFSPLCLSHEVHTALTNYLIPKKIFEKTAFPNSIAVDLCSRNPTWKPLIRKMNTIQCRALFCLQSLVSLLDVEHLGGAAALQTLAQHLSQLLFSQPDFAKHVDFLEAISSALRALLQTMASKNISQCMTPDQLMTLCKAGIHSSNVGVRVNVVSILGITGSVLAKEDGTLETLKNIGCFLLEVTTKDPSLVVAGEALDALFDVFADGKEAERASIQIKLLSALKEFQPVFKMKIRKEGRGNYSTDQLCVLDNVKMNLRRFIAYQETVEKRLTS
UniProt Q76I76: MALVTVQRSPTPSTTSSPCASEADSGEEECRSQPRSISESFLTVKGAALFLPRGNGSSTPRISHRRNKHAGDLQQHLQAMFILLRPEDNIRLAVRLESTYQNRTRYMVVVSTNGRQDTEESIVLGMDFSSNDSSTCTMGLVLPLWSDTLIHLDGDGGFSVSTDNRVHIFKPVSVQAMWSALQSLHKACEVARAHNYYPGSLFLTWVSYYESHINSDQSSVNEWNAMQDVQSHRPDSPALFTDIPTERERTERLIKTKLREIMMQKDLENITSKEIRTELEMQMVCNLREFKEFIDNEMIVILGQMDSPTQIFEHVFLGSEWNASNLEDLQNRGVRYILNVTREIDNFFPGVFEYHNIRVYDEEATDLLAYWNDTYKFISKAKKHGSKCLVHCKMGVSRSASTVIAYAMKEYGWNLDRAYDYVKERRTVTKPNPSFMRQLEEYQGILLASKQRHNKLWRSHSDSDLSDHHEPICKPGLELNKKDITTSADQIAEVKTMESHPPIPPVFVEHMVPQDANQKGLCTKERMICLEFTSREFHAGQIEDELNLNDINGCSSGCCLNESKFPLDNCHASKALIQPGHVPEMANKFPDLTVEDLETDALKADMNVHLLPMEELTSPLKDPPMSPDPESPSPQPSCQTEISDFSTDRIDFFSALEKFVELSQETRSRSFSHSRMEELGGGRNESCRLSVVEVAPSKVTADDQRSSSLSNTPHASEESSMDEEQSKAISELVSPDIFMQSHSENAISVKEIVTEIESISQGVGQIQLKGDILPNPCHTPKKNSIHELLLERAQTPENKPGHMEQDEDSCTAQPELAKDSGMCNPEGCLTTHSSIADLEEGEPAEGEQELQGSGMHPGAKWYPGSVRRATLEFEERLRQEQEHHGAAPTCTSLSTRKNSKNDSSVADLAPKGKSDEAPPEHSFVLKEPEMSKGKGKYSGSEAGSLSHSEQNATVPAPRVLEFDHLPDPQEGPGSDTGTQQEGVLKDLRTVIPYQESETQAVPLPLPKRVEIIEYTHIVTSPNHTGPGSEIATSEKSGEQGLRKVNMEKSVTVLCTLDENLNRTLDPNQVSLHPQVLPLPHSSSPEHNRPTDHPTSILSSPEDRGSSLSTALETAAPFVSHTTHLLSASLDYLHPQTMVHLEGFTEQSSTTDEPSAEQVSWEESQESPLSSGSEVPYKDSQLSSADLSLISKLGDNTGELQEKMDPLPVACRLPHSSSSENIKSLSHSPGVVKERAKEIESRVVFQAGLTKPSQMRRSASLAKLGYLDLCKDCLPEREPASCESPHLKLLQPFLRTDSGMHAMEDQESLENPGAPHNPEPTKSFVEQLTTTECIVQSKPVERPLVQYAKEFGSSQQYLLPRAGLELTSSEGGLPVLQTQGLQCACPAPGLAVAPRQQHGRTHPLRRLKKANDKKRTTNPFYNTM
UniProt Q6ZSJ8: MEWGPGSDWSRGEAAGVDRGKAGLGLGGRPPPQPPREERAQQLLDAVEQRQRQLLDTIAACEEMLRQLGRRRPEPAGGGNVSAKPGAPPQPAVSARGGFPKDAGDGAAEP

The list shows a part of the results. Most values lie at the level of the controls, where differences are scatter.

Compound in the test: Cc1nc(Nc2ncc(C(=O)Nc3c(C)cccc3Cl)s2)cc(N2CCN(CCO)CC2)n1 [dasatinib]
The test is described as follows: log2 fold change of tryptic peptide abundance, ligand vs vehicle (limited proteolysis) (log2 ratio); higher = more trypsin-susceptible (destabilized). As to conditions: ligand concentration: 5 uM; sample: K562 cleared lysate.

Turning to “UniProt Q6UWZ7 (peptide sequence: LLDTQDKR, peptide start residue: 362)”, the log2 fold change was -0.16.

For “GALNT7 (peptide sequence: GGNGLAPGEDR, peptide start residue: 55) (UniProt Q86SF2)”, the log2 fold change worked out at 0.386.

Consider “UniProt Q7L5D6 (peptide sequence: GDYYEAHQMYR, peptide start residue: 37)”, for which the log2 fold change was -0.202.

As for “UniProt Q6XUX3 (peptide sequence: KVAQEAIESLSASK, peptide start residue: 567)”, the log2 fold change was 0.486.

As for “KCTD9 (peptide sequence: ANLEGANLK, peptide start residue: 303) (UniProt Q7L273)”, the log2 fold change was determined as 0.182.

As for “LPCAT2 (peptide sequence: EVQTTPSTASNK, peptide start residue: 517) (UniProt Q7L5N7)”, the log2 fold change is -0.369.

Regarding “UniProt Q7Z3D6 (peptide sequence: GIGHLLCKDELLK, peptide start residue: 310)”, the log2 fold change worked out at 0.204.

Turning to “UniProt Q7Z6J8 (peptide sequence: GLQFVVGDGLHLR, peptide start residue: 70)”, the log2 fold change was determined as 0.0764.

With “MEX3B (peptide sequence: AKTNTYIK, peptide start residue: 94) (UniProt Q6ZN04)”, the log2 fold change was -0.113.

As to “KTN1 (peptide sequence: SGVIQDALKK, peptide start residue: 312) (UniProt Q86UP2)”, the log2 fold change came out at 0.32.

“TSEN54 (peptide sequence: EHHAEAAQFQEDVNADPEVQR, peptide start residue: 354) (UniProt Q7Z6J9)”: the log2 fold change worked out at 0.173.

As for “MARK2 (peptide sequence: VLNHPNIVK, peptide start residue: 106) (UniProt Q7KZI7)”, the log2 fold change was determined as 0.913.

Consider “ZNF627 (peptide sequence: ALTCLASVR, peptide start residue: 315) (UniProt Q7L945)”, for which the log2 fold change was 0.318.

As to “DHX32 (peptide sequence: ANSLVMQPISQSQAEIRK, peptide start residue: 372) (UniProt Q7L7V1)”, the log2 fold change was 0.321.

For “METTL3 (peptide sequence: FAAQELIEVKR, peptide start residue: 123) (UniProt Q86U44)”, the log2 fold change was -0.196.

Turning to “TADA2B (peptide sequence: RYHGYQLVDGGR, peptide start residue: 47) (UniProt Q86TJ2)”, the log2 fold change is -0.256.

Consider “RABEPK (peptide sequence: QLPVLEPGDKPR, peptide start residue: 3) (UniProt Q7Z6M1)”, for which the log2 fold change worked out at 0.199.

Consider “BCOR (peptide sequence: SPPIPYPR, peptide start residue: 648) (UniProt Q6W2J9)”, for which the log2 fold change is -0.216.

For the target “UniProt Q6ZSZ6 (peptide sequence: KEPEKEK, peptide start residue: 500)”, the log2 fold change came to 0.0785.

Turning to “RNF111 (peptide sequence: HSQTILNAK, peptide start residue: 165) (UniProt Q6ZNA4)”, the log2 fold change came to 0.79.

As for “ZNF574 (peptide sequence: RFECGTCGK, peptide start residue: 666) (UniProt Q6ZN55)”, the log2 fold change stood at 0.559.

For “UniProt Q6ZN57 (peptide sequence: IHTGEKPYECDQCGK, peptide start residue: 403)”, the log2 fold change came to 0.0564.

For “DEF8 (peptide sequence: YLALMVSRPVLR, peptide start residue: 338) (UniProt Q6ZN54)”, the log2 fold change was -0.237.

Turning to “ENOSF1 (peptide sequence: VGADLQDDMR, peptide start residue: 223) (UniProt Q7L5Y1)”, the log2 fold change is 0.396.

For “UniProt Q6ZW61 (peptide sequence: VEADNNTSR, peptide start residue: 206)”, the log2 fold change turned out to be 0.178.

Take “MEPCE (peptide sequence: HHHHHPLPAAGFK, peptide start residue: 395) (UniProt Q7L2J0)”: the log2 fold change is -0.457.

“UniProt Q7L9L4 (peptide sequence: ELAPLQELIEK, peptide start residue: 200)”: the log2 fold change was -0.132.

Turning to “INTS8 (peptide sequence: TIVQSSFPVK, peptide start residue: 153) (UniProt Q75QN2)”, the log2 fold change was -0.153.

On to “HEATR3 (peptide sequence: LQHPSAEVRECACAGLAR, peptide start residue: 47) (UniProt Q7Z4Q2)”, for which the log2 fold change was found to be 0.338.

Turning to “SSH2 (peptide sequence: SLSHSPGVVK, peptide start residue: 1223) (UniProt Q76I76)”, the log2 fold change came out at 0.272.

For “UniProt Q86UL8 (peptide sequence: TTSWLDPR, peptide start residue: 325)”, the log2 fold change is 0.207.

Turning to “NUP54 (peptide sequence: MQNHFGAVR, peptide start residue: 440) (UniProt Q7Z3B4)”, the log2 fold change was -0.158.

Take “TTC21B (peptide sequence: MSPNPDREAILESDAR, peptide start residue: 83) (UniProt Q7Z4L5)”: the log2 fold change was -0.674.

For the target “C1orf122 (peptide sequence: RRPEPAGGGNVSAK, peptide start residue: 71) (UniProt Q6ZSJ8)”, the log2 fold change is -0.0805.

Regarding “UniProt Q7L804 (peptide sequence: LSSAHSMSDLSGSHMSSEK, peptide start residue: 222)”, the log2 fold change amounted to 0.474.

In the case of “UniProt Q7L8W6 (peptide sequence: NQEDLLR, peptide start residue: 145)”, the log2 fold change was -0.136.

For “UniProt Q6ZRQ5 (peptide sequence: HFSGESYLCSGALKR, peptide start residue: 41)”, the log2 fold change is 0.45.

On to “VPS13B (peptide sequence: IGVLSLESLHASTR, peptide start residue: 1913) (UniProt Q7Z7G8)”, for which the log2 fold change was -0.255.
